In patent publication EP0054898A1, “Formamidine derivatives, preparation and use thereof, pharmaceutical compositions containing them and their preparation” (HOECHST AKTIENGESELLSCHAFT, priority 1980, dated 1982):
At least one read-out could not be matched to a standard name with certainty.

Test system: Serum-Lipoproteine
Assay: Effect on serum lipoproteins (cholesterol in serum and in ultracentrifuge fractions) in rats after 7 days of oral treatment
Format: in vivo, männlichen Wistar-Ratten
Conditions: oral (gavage), pooled serum
From the text: Die Wirkung der angeführten Verbindungen auf die Serum- Lipoproteine wurde an männlichen Wistar-Ratten untersucht, die 7 Tage per Schlundsonde mit den angeführten in Polyäthylenglykol 400 suspendierten Verbindungen behandelt wurden. Außerdem wurde eine Kontrollgruppe, die nur das Lösungsmittel Polyäthylenglykol 400 erhielt, mitgeführt, sowie eine Ratten-Gruppe, die zum Vergleich das Standardhypolipidämikum Clofibrat, ebenfalls in Polyäthylenglykol 400 gelöst, erhielt. Pro Gruppe wurden in der Regel 10 Tiere eingesetzt, denen am Ende der Behandlung das Blut nach leichter Äthernakose aus dem Orbitalplexus entnommen wurde. Das daraus gewonnene Serum wurde gepoolt. Die Serum- Lipoproteine wurden in der Ultrazentrifuge in folgende Dichteklassen getrennt: • VLDL 1,006; LDL 1,006 bis 1,04; HDL 1,04 bis 1,21.
Aus den in der Ultrazentrifuge isolierten LipoproteinFraktionen wurde das darin enthaltene Choletserin vollenzymatisch nach der CHOD-PAP-Methode mittels der Testkombination von Boehringer Mannheim bestimmt und die Werte in ug/ml Serum umgerechnet. In der angeführten Tabelle (S.8) ist die Veränderung des Lipoprotein-Cholesterins in der behandelten Gruppe gegenüber einer unter gleichen Bedingungen mitgeführten Kontrollgruppe angegeben.
% Veränderung der Lipoproteine in Ratten-Serum nach siebentägiger oraler Behandlung mit den Verbindungen

Q: How did the “% Veränderung des Cholesterins gegenüber Kontrolle im Serum” value (Dosis 3 mg/kg/Tag) turn out when Cc1ccc(S(=O)(=O)N(C=Nc2ccc(Oc3ccccc3)cc2)C(C)C)cc1 [Beispiel 4] was run?
A: -5%

Q: What about the “% Veränderung des Cholesterins gegenüber Kontrolle in der Serum-Lipoprotein-Fraktion HDL” value (Dosis 3 mg/kg/Tag) of the same molecule?
A: +2%

Q: And the “% Veränderung des Cholesterins gegenüber Kontrolle in der Serum-Lipoprotein-Fraktion LDL” value (Dosis 3 mg/kg/Tag)?
A: -8%

Q: And the “% Veränderung des Cholesterins gegenüber Kontrolle in der Serum-Lipoprotein-Fraktion VLDL” value (Dosis 3 mg/kg/Tag)?
A: -23%

Q: And the “% Veränderung des Cholesterins gegenüber Kontrolle im Serum” value (Dosis 10 mg/kg/Tag)?
A: -17%

Q: What about the “% Veränderung des Cholesterins gegenüber Kontrolle in der Serum-Lipoprotein-Fraktion HDL” value (Dosis 10 mg/kg/Tag) of the same molecule?
A: -7%

Q: And the “% Veränderung des Cholesterins gegenüber Kontrolle in der Serum-Lipoprotein-Fraktion LDL” value (Dosis 10 mg/kg/Tag)?
A: -33%

Q: What about the “% Veränderung des Cholesterins gegenüber Kontrolle in der Serum-Lipoprotein-Fraktion VLDL” value (Dosis 10 mg/kg/Tag) of the same molecule?
A: -67%

Q: Which results are given for C=CCN(C=Nc1ccc(Oc2ccccc2)cc1)S(=O)(=O)c1ccc(C)cc1 [Beispiel 6]?
A: % Veränderung des Cholesterins gegenüber Kontrolle im Serum (Dosis 3 mg/kg/Tag): -4%; % Veränderung des Cholesterins gegenüber Kontrolle in der Serum-Lipoprotein-Fraktion HDL (Dosis 3 mg/kg/Tag): +3%; % Veränderung des Cholesterins gegenüber Kontrolle in der Serum-Lipoprotein-Fraktion LDL (Dosis 3 mg/kg/Tag): -22%; % Veränderung des Cholesterins gegenüber Kontrolle in der Serum-Lipoprotein-Fraktion VLDL (Dosis 3 mg/kg/Tag): -23%; % Veränderung des Cholesterins gegenüber Kontrolle im Serum (Dosis 10 mg/kg/Tag): -8%; % Veränderung des Cholesterins gegenüber Kontrolle in der Serum-Lipoprotein-Fraktion HDL (Dosis 10 mg/kg/Tag): -1%; % Veränderung des Cholesterins gegenüber Kontrolle in der Serum-Lipoprotein-Fraktion LDL (Dosis 10 mg/kg/Tag): -25%; % Veränderung des Cholesterins gegenüber Kontrolle in der Serum-Lipoprotein-Fraktion VLDL (Dosis 10 mg/kg/Tag): -67%

Q: Which “% Veränderung des Cholesterins gegenüber Kontrolle im Serum” value (Dosis 1 mg/kg/Tag) does the source give for Cc1ccc(S(=O)(=O)N(C)C=Nc2ccc(Cl)cc2Cl)cc1 [Beispiel 35] here?
A: +7%

Q: And the “% Veränderung des Cholesterins gegenüber Kontrolle in der Serum-Lipoprotein-Fraktion HDL” value (Dosis 1 mg/kg/Tag)?
A: +2%

Q: What about the “% Veränderung des Cholesterins gegenüber Kontrolle in der Serum-Lipoprotein-Fraktion LDL” value (Dosis 1 mg/kg/Tag) of the same molecule?
A: -19%

Q: What about the “% Veränderung des Cholesterins gegenüber Kontrolle in der Serum-Lipoprotein-Fraktion VLDL” value (Dosis 1 mg/kg/Tag) of the same molecule?
A: -72%

Q: What about the “% Veränderung des Cholesterins gegenüber Kontrolle im Serum” value (Dosis 3 mg/kg/Tag) of the same molecule?
A: +1%

Q: What about the “% Veränderung des Cholesterins gegenüber Kontrolle in der Serum-Lipoprotein-Fraktion HDL” value (Dosis 3 mg/kg/Tag) of the same molecule?
A: -2%

Q: And the “% Veränderung des Cholesterins gegenüber Kontrolle in der Serum-Lipoprotein-Fraktion LDL” value (Dosis 3 mg/kg/Tag)?
A: -37%

Q: What about the “% Veränderung des Cholesterins gegenüber Kontrolle in der Serum-Lipoprotein-Fraktion VLDL” value (Dosis 3 mg/kg/Tag) of the same molecule?
A: -52%

Q: What about the “% Veränderung des Cholesterins gegenüber Kontrolle im Serum” value (Dosis 10 mg/kg/Tag) of the same molecule?
A: +4%

Q: And the “% Veränderung des Cholesterins gegenüber Kontrolle in der Serum-Lipoprotein-Fraktion HDL” value (Dosis 10 mg/kg/Tag)?
A: +2%

Q: And the “% Veränderung des Cholesterins gegenüber Kontrolle in der Serum-Lipoprotein-Fraktion LDL” value (Dosis 10 mg/kg/Tag)?
A: -36%

Q: Cc1ccc(S(=O)(=O)N(C)C=Nc2cc(C(F)(F)F)cc(C(F)(F)F)c2)cc1 [Beispiel 36] was tested. Which “% Veränderung des Cholesterins gegenüber Kontrolle in der Serum-Lipoprotein-Fraktion HDL” value (Dosis 3 mg/kg/Tag) did it give?
A: +1%

Q: What about the “% Veränderung des Cholesterins gegenüber Kontrolle in der Serum-Lipoprotein-Fraktion LDL” value (Dosis 3 mg/kg/Tag) of the same molecule?
A: -19%

Q: And the “% Veränderung des Cholesterins gegenüber Kontrolle in der Serum-Lipoprotein-Fraktion HDL” value (Dosis 10 mg/kg/Tag)?
A: +3%

Q: And the “% Veränderung des Cholesterins gegenüber Kontrolle in der Serum-Lipoprotein-Fraktion LDL” value (Dosis 10 mg/kg/Tag)?
A: -34%

Q: With CN(C#N)C=Nc1ccc(Oc2ccc(Cl)cc2)c(Cl)c1 [Beispiel 50] as the molecule, how does the “% Veränderung des Cholesterins gegenüber Kontrolle im Serum” value (Dosis 1 mg/kg/Tag) read?
A: +13%

Q: What about the “% Veränderung des Cholesterins gegenüber Kontrolle in der Serum-Lipoprotein-Fraktion HDL” value (Dosis 1 mg/kg/Tag) of the same molecule?
A: +10%

Q: What about the “% Veränderung des Cholesterins gegenüber Kontrolle in der Serum-Lipoprotein-Fraktion LDL” value (Dosis 1 mg/kg/Tag) of the same molecule?
A: -21%

Q: And the “% Veränderung des Cholesterins gegenüber Kontrolle im Serum” value (Dosis 3 mg/kg/Tag)?
A: +7%

Q: What about the “% Veränderung des Cholesterins gegenüber Kontrolle in der Serum-Lipoprotein-Fraktion HDL” value (Dosis 3 mg/kg/Tag) of the same molecule?
A: +3%

Q: What about the “% Veränderung des Cholesterins gegenüber Kontrolle in der Serum-Lipoprotein-Fraktion LDL” value (Dosis 3 mg/kg/Tag) of the same molecule?
A: -35%
